{"sequences": {"note": "By UniProt entry, the sequences of proteins in these tests, tags left out.", "UniProt P11440": "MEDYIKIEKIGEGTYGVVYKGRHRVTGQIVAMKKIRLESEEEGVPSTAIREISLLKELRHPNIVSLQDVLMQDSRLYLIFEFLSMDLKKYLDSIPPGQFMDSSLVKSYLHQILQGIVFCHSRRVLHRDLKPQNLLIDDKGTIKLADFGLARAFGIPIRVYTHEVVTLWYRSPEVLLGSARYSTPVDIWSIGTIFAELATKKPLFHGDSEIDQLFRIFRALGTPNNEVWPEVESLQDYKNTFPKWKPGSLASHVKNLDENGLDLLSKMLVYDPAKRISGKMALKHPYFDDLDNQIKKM"}, "source": "paper PMC11289102", "molecules": {"B1": {"name": "Flag-Hmmr (hyaluronan mediated motility receptor) (protein, UniProt Q00547 1-794)", "chain": "MSFPKAPLKRFNDPSGCAPSPGAYDVKTSEATKGPVSFQKSQRFKNQRESQQNLNIDKDTTLLASAKKAKKSVSKKDSQKNDKDVKRLEKEIRALLQERGTQDKRIQDMESELEKTEAKLNAAVREKTSLSASNASLEKRLTELTRANELLKAKFSEDGHQKNMRALSLELMKLRNKRETKMRSMMVKQEGMELKLQATQKDLTESKGKIVQLEGKLVSIEKEKIDEKCETEKLLEYIQEISCASDQVEKCKVDIAQLEEDLKEKDREILSLKQSLEENITFSKQIEDLTVKCQLLETERDNLVSKDRERAETLSAEMQILTERLALERQEYEKLQQKELQSQSLLQQEKELSARLQQQLCSFQEEMTSEKNVFKEELKLALAELDAVQQKEEQSERLVKQLEEETKSTAEQLTRLDNLLREKEVELEKHIAAHAQAILIAQEKYNDTAQSLRDVTAQLESVQEKYNDTAQSLRDVTAQLESEQEKYNDTAQSLRDVTAQLESEQEKYNDTAQSLRDVTAQLESVQEKYNDTAQSLRDVTAQLESYKSSTLKEIEDLKLENLTLQEKVAMAEKSVEDVQQQILTAESTNQEYARMVQDLQNRSTLKEEEIKEITSSFLEKITDLKNQLRQQDEDFRKQLEEKGKRTAEKENVMTELTMEINKWRLLYEELYEKTKPFQQQLDAFEAEKQALLNEHGATQEQLNKIRDSYAQLLGHQNLKQKIKHVVKLKDENSQLKSEVSKLRSQLVKRKQNELRLQGELDKALGIRHFDPSKAFCHASKENFTPLKEGNPNCC"}}, "key": {"[1]": {"target": "T1, Flag-Hmmr (hyaluronan mediated motility receptor) (UniProt Q00547)", "T1 sequence": "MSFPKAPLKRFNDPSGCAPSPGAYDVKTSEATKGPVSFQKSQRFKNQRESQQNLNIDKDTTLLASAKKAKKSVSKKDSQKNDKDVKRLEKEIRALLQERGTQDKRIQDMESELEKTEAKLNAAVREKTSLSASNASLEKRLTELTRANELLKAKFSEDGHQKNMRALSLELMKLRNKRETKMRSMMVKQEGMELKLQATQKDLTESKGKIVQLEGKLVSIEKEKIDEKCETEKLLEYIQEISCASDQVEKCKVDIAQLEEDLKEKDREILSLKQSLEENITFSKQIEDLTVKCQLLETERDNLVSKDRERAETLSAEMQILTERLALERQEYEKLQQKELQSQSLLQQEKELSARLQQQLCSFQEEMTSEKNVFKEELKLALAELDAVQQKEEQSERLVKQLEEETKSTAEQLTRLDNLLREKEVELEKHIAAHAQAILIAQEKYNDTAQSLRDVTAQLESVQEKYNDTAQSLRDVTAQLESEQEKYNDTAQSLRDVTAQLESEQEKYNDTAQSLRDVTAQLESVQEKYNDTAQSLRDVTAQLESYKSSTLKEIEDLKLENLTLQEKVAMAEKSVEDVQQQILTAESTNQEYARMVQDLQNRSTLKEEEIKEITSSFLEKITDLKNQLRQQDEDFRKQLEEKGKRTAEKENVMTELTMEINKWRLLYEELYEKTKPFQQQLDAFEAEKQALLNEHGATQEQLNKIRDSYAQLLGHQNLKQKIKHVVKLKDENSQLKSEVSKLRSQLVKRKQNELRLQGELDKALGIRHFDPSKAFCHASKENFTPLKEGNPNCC", "assay": "co-IP; HEK293T transfected with HA-Mmrn1, Flag-Hmmr or Myc-Cdk1 plasmid; cell membrane lysate; immunoprecipitated with antibodies against HA, Flag and Myc, protein G Sepharose; blotted with antibodies against HA, Flag and Myc"}, "HA-Mmrn1 (multimerin 1)": {"target": "T2, HA-Mmrn1 (multimerin 1) (UniProt B2RPV6)", "T2 sequence": "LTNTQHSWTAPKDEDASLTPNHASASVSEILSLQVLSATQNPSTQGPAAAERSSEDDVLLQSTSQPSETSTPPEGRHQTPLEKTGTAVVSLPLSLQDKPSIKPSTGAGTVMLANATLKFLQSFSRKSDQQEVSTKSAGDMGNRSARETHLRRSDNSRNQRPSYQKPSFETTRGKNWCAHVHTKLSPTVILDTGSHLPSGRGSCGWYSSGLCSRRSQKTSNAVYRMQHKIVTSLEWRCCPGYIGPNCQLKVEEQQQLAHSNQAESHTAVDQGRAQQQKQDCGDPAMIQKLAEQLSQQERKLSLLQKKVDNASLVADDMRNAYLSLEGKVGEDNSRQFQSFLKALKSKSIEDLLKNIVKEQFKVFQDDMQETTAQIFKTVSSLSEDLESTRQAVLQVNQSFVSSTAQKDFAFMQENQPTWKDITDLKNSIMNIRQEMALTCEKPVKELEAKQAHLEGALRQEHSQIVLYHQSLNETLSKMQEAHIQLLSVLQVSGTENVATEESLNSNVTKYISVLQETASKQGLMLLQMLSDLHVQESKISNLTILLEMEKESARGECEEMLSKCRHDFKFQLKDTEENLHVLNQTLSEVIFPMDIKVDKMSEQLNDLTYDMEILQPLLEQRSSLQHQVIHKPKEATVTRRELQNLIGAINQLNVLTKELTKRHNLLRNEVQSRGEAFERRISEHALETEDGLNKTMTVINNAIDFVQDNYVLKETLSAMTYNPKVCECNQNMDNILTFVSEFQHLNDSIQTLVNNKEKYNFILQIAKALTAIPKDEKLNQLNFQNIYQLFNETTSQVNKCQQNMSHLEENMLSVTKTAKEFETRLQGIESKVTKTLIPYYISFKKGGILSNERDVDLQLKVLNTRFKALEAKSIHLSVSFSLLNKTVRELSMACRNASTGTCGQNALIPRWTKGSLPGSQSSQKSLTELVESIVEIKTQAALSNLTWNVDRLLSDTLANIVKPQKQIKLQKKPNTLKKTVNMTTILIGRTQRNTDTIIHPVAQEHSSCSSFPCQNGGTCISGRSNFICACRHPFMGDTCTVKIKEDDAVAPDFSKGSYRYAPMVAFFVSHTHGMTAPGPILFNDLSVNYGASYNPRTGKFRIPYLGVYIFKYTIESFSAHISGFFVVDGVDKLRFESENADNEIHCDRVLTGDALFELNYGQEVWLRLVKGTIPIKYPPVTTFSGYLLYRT", "assay": "co-IP; HEK293T transfected with HA-Mmrn1, Flag-Hmmr or Myc-Cdk1 plasmid; cell membrane lysate; immunoprecipitated with antibodies against HA, Flag and Myc, protein G Sepharose; blotted with antibodies against HA, Flag and Myc"}}, "note": "These are yes or no findings as the source states them, for the method shown. Binding seen in cells or lysates may run through a third protein. Some binding calls cover weakened binding; strength is not graded here. Tags and fused reporters may be left off the sequences shown.", "data": [{"molecule": "Myc-Cdk1 (cyclin-dependent kinase 1) (from UniProt P11440 1-297)", "values": [{"measurement": "binding", "setting": "[1]", "value": "binds"}, {"measurement": "binding", "setting": "HA-Mmrn1 (multimerin 1)", "value": "binds"}]}, {"molecule": "B1", "values": [{"measurement": "binding", "setting": "HA-Mmrn1 (multimerin 1)", "value": "binds"}]}]}
